For this assay, the target named is CTD of recombinant HSP90β (UniProt P08238). Kind of assay: AlphaScreen or HTRF; TR-FRET, HSP90 CTD TR-FRET assay kit (50289, BPS Bioscience); PPID-GST-tag and HSP90β CTD, 2 h at room temperature; ratio 665 nm/620 nm; DMSO as positive control (100% activity), no PPID as negative control; VWK147 (1 mM) and coumermycin A1 as inhibitors; both purified.

By UniProt entry, the sequences of proteins in these tests, tags left out. Where a name states a change or a piece, a line headed by the entry shows the natural chain unless it says otherwise.
UniProt P08238: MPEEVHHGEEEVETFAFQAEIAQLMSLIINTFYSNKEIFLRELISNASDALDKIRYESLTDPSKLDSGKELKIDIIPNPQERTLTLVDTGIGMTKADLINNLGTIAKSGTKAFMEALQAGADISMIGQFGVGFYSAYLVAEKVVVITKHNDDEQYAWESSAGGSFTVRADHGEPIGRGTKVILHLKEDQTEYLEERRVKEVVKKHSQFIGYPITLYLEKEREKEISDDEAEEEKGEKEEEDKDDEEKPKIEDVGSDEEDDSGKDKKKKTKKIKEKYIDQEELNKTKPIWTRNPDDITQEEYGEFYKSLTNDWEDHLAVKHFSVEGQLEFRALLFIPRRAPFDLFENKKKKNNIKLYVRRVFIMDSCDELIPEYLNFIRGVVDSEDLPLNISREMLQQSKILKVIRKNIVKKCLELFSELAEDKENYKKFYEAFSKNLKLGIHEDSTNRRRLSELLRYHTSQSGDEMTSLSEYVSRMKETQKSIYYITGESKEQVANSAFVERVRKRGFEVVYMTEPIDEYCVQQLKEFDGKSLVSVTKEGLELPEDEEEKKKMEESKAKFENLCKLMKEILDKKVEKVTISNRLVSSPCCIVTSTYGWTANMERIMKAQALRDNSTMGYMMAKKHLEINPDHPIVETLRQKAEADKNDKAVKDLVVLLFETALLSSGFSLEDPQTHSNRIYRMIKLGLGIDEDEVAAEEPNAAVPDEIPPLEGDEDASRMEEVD
UniProt Q08752: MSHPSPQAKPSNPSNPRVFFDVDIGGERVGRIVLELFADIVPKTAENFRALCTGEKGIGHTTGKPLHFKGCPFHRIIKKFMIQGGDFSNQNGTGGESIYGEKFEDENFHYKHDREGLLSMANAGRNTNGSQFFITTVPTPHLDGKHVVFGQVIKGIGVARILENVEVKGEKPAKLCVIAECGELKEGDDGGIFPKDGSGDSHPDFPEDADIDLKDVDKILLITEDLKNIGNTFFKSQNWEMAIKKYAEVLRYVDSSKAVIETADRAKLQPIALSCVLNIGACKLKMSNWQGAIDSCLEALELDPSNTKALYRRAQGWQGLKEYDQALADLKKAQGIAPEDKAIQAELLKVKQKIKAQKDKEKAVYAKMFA

Results are given in words; binding and its absence hold for the method and conditions named. A result given as binding can be weak or reduced; the word gives no strength.

1 substance from article PMC12848304, “Small-molecule inhibitor of C‑terminal HSP90 dimerization modulates autophagy and functions synergistically with mTOR inhibition to kill cisplatin-resistant cancer cells” (Cell Death & Disease, 2025) can be followed below.

For “Peptidyl prolyl isomerase D (PPID), GST-tagged (from UniProt Q08752 1-370)”, the binding entry was “binds”.
